Source: ChEMBL document CHEMBL3988442, “University of Dundee, Small-Polar-MMV Screening Library” (2021).

Values are the deposited “Percent Effect”, in %.
The controls that fix the scale are not given in the record; negative values are as filed.
The compounds are a random part of those screened.

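Assay on Mycobacterium tuberculosis, filed only as a heat shock assay from Cornell; the read-out is not stated. The concentration is filed as 10 mM, unlikely as a test dose, so the dose is not known. Direction is inferred from retests: higher values go with stronger inhibition. Of about 69,000 compounds tested this way, about 930 (1.4%) reached 50% or more in at least one test.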

| # | Compound | effect |
|---|---|---|
| 1 | `COc1cc(-c2cc(NC3CCCC3)nc3[nH]ccc23)nc(N)n1` | 101.1% |
| 2 | `CCOc1ncccc1CN1Cc2ncccc2C1=O` | 5.387% |
| 3 | `O=C(Nc1nccs1)c1csc(NC2CCCC2)n1` | 106.3% |
| 4 | `CCS(=O)(=O)NCc1cc(Br)c(OC)c(OC)c1` | 7.723% |
| 5 | `[H][C@@]12C[C@H](C(=O)Nc3cccnc3)[C@@]([H])(CN(Cc3ccc(C)cc3)C1)O2` | 0.4433% |
| 6 | `OCC1(O)CCCN(Cc2ccccc2OCCc2ccccc2)CC1` (stereo unspecified) | 0.957% |
| 7 | `CCn1cc(CNC(=O)CCc2nnc(-c3ccc(C)s3)o2)cn1` | -51.9% |
| 8 | `CCN(CC)C(=O)c1nnsc1-c1ccc(C)cc1` | 4.009% |
| 9 | `CN(C)C(C(=O)NCC(F)(F)F)c1cccc(F)c1` (stereo unspecified) | 4.122% |
| 10 | `c1ccc(-c2cc(CNCCN3CCOCC3)c3nnnn3c2)cc1` | -23.28% |
| 11 | `CC(C)n1c(C2CCCN(Cc3ccnn3C)C2)nc2ccccc21` (stereo unspecified) | 13.13% |
| 12 | `c1ccc(-c2cnc(CN3CCCC3Cn3cccn3)o2)cc1` (stereo unspecified) | 7.104% |
| 13 | `CC(=O)N1CCN(C(=O)c2ccc(-c3cccc(C)c3)[nH]c2=O)CC1` | 14.72% |
| 14 | `Cc1cc(C)c(CNC(=O)NCc2ccncc2)c(=O)[nH]1` | -5.732% |
| 15 | `COc1ccc(CN2CCOC[C@H](OCCC(C)C)C2)cc1` | -56.33% |
| 16 | `Cc1nc(-c2ccccc2)sc1CSCCS(C)(=O)=O` | 1.803% |
| 17 | `Cc1ccc(CC(=O)N2CCOCC2c2ncon2)cc1` (stereo unspecified) | -10.02% |
| 18 | `COc1ccccc1CN(C)C(=O)NCc1c(C)cc(C)[nH]c1=O` | -13.28% |
| 19 | `Cn1nccc1NCc1cc2cc(F)ccc2o1` | -7.462% |
| 20 | `CC(C)c1cc(N2CCC(C(C)N3CCCC3)CC2)n2nccc2n1` (stereo unspecified) | 12.89% |
| 21 | `CC(=O)NCC(=O)Nc1cc(C)n(-c2ccc(Cl)cc2Cl)n1` | -4.306% |
| 22 | `NC(=O)[C@H]1CCCN(c2nccc(-c3ccncc3)n2)C1` | -5.35% |
| 23 | `COc1ncccc1CNC(=O)c1cnccn1` | 14.78% |
| 24 | `CCc1nc(NC2CCCN(C(=O)c3cccs3)C2)c2cnn(C)c2n1` (stereo unspecified) | -1.944% |
| 25 | `C[C@@H]1CN(C(=O)CCc2nncn2C)C[C@@]1(O)C1CCC1` | -15.35% |
| 26 | `Cc1nn(C)c(N2CCOCC2)c1CNC1CCCCNC1=O` (stereo unspecified) | -19.03% |
| 27 | `C[C@@H]1CN(C2(C(=O)N3CCSCC3)Cc3ccccc3C2)C[C@H](C)O1` | -28.41% |
| 28 | `[H][C@@]12CCN(C(=O)c3ccccc3)C[C@@]1([H])O[C@@H](c1nccs1)C2` | -26.77% |
| 29 | `CS(=O)(=O)NCc1cc2n(n1)CCCN(Cc1cccc(C#N)c1)C2` | 3.971% |
| 30 | `CCn1cc(CN(C)Cc2cnn(-c3ccc(F)cc3)c2)cn1` | -1.097% |
| 31 | `[H][C@@]12CCN(CC3CCOCC3)C[C@]1([H])OCCN(c1ccccc1)C2=O` | -13.26% |
| 32 | `CCc1c(C(=O)N2CCN(c3ncccn3)CC2)cnn1C(C)(C)C` | -20.61% |
| 33 | `N#Cc1ncn(CCC(=O)Nc2ccccc2F)n1` | 12.57% |
| 34 | `Cc1nn(C)c(C)c1C1SCC(=O)Nc2c1c(O)nn2C(C)C` (stereo unspecified) | 16.46% |
| 35 | `CCc1nnc(Nc2cccc(C3CCN(C(=O)CNC)CC3)n2)s1` | -24.89% |
| 36 | `Cn1ncc2ccc(C3CCCN(C(=O)Cc4cccs4)C3)nc21` (stereo unspecified) | -23.71% |
| 37 | `O=C(CC1CCCC1)NCCS(=O)(=O)N1CCN(c2ncccn2)CC1` | -13.28% |
| 38 | `CC(=O)NCC(=O)NC1CCc2nccn2C1` (stereo unspecified) | -3.3% |
| 39 | `CNc1ncccc1CN1CCN(C)CC(C(=O)N(C)C)C1` (stereo unspecified) | -2.659% |
| 40 | `CC(CCc1cccn1C)NC(=O)Nc1cccn(C)c1=O` (stereo unspecified) | -8.662% |
| 41 | `CC(O)(CN1CCC(O)CC1)c1cccc(C(F)(F)F)c1` (stereo unspecified) | 6.261% |
| 42 | `Cc1csc(CNC(=O)NCC(O)c2ccc(F)cc2F)n1` (stereo unspecified) | -4.521% |
| 43 | `CCS(=O)(=O)N1CCC2(CC(=O)N(c3ccc4c(c3)OCO4)C2)C1` (stereo unspecified) | -6.361% |
| 44 | `CN(C)C1CCN(C(=O)NCc2ccccc2Cn2cncn2)CC1` | 6.331% |
| 45 | `Cc1cc(C(=O)N2CCC(n3nc(C)cc3C)C2)c2ccc(F)cc2n1` (stereo unspecified) | 6.232% |
| 46 | `CCc1cnc2c(c1NCc1ccc(OC)cc1)c(=O)n(C)c(=O)n2C` | 8.916% |
| 47 | `Cc1cc(-c2cnc(N3CCC(O)CC3)nc2C(C)C)on1` | -7.671% |
| 48 | `Cc1cc(F)ccc1N1CCCC(NC2CCOCC2)C1=O` (stereo unspecified) | -15.46% |
| 49 | `Cc1cc(N)nc(SC2CCN(c3ccccc3)C2=O)n1` (stereo unspecified) | -43.33% |
| 50 | `CCn1nc2c(cc1=O)CN(c1nc3ccccc3s1)CC2` | -22.94% |
| 51 | `O=C(NCc1cccs1)c1nc2c(o1)CN(C(=O)c1cccnc1)C2.O=C(O)C(F)(F)F` | 24.71% |
| 52 | `CCOCCN1CCN(c2ncccc2C#N)CC1CC` (stereo unspecified) | -0.7852% |
| 53 | `CCc1ncc2c(n1)CN(C(C)C(=O)Nc1ccc(Cl)cn1)CC2` (stereo unspecified) | -26.69% |
| 54 | `O=S(=O)(c1ccccc1F)N1CCCCC1c1cc[nH]n1` (stereo unspecified) | -15.36% |
| 55 | `CC(C)Oc1ccc(C(=O)N2CCCCC2Cn2cccn2)cn1` (stereo unspecified) | 3.589% |
| 56 | `Cc1cccc(CNc2n[nH]c(C)n2)c1` | 10.46% |
| 57 | `CCn1cnnc1C1CCN(C(=O)c2ccoc2C)CC1` | -18.57% |
| 58 | `CN1CCN([C@H]2CCN(C(=O)c3nn(C)cc3Cl)C[C@H]2CCCO)CC1` | 13.81% |
| 59 | `CC(NC(=O)N1CCC2(C1)OCCO2)c1cccc(Cl)c1` (stereo unspecified) | 5.257% |
| 60 | `Cc1cc(C)nc(C2(C)CCCN2CCO)n1` (stereo unspecified) | -7.941% |
| 61 | `[H][C@@]12COC[C@@H](C(=O)NC)[C@]1([H])CN(C(=O)c1ccc(OC)cc1)C2` | -9.332% |
| 62 | `Cc1ncsc1CN1Cc2cnn(C)c2C(COCC2CC2)C1.O=C(O)C(F)(F)F.O=C(O)C(F)(F)F` (stereo unspecified) | -8.105% |
| 63 | `Cc1ccccc1CN1CCC(NCC2CNc3ccnn3C2)CC1` (stereo unspecified) | 20.83% |
| 64 | `CCS(=O)(=O)NCC1CCN(c2cnccn2)CC1` | -15.13% |
| 65 | `O=C(CCN1CCSCC1c1ccccc1)N1CCOCC1` (stereo unspecified) | -25.8% |
| 66 | `Cc1ccc(CNC(=O)Nc2nnc(C)s2)cn1` | 7.515% |
| 67 | `CN1CCN(Cc2ccc(-c3ccc(-c4ccn[nH]4)cc3)nc2)CC1` | -8.889% |
| 68 | `COCCN(Cc1ccco1)Cc1nc(-c2ccccc2)no1` | 3.808% |
| 69 | `CC(C)n1cc(CN2CCCN(C(=O)c3ccco3)CC2)cn1` | -20.97% |
| 70 | `O=S1(=O)NCC2(CCN(c3ncc(F)cn3)CC2)COc2ccccc21` | -22.83% |
| 71 | `CCOc1cc(=O)n2c(c1C(=O)OCc1ccc(C)cc1)CCCC2` | -16.86% |
| 72 | `O=C(Nc1ccc(Cl)cn1)c1cncc(C2CCNCC2)n1` | 12.22% |
| 73 | `N#Cc1ccc(F)c(CN2CCCC2Cn2cncn2)c1` (stereo unspecified) | -13.66% |
| 74 | `O=S1(=O)COCCN1Cc1ccc(Cl)c(Cl)c1` | 5.827% |
| 75 | `CCCn1cc(Cl)c(C(=O)N2C[C@@H](O)[C@H](Oc3ccccc3)C2)n1` | 19.19% |
| 76 | `COCCCNC(=O)N1CCN(C(=O)c2nsc3ccc(C)cc23)CC1` | -25.58% |
| 77 | `Cc1ncsc1CN1CCOC(C)(C(N)=O)C1` (stereo unspecified) | 21.04% |
| 78 | `COc1ccc(CCNC(=O)N2CCCC(c3nncn3C)C2)cc1` (stereo unspecified) | 1.767% |
| 79 | `O=C(Cc1ccsc1)N1CCN(CCOc2ccccc2)CC1` | -30.44% |
| 80 | `Cc1nsc(NC2CCOC3(CCCCC3)C2)n1` (stereo unspecified) | -1.061% |
| 81 | `Cc1cc2c(cc1Cl)C=CC1(CCN(CC(=O)N3CCOCC3)CC1)O2` | -17.04% |
| 82 | `Cc1nn(CC(=O)N2CCN(Cc3cnn(C)c3C)CC2)cc1Br` | -13.9% |
| 83 | `NC(=O)c1cnc(NC2CCC(c3ccccc3)CC2)c(Cl)c1` (stereo unspecified) | 15.31% |

Repeated from the top, 5 entries:

{"compound": "COc1cc(-c2cc(NC3CCCC3)nc3[nH]ccc23)nc(N)n1", "effect": 101.1}
{"compound": "CCOc1ncccc1CN1Cc2ncccc2C1=O", "effect": 5.387}
{"compound": "O=C(Nc1nccs1)c1csc(NC2CCCC2)n1", "effect": 106.3}
{"compound": "CCS(=O)(=O)NCc1cc(Br)c(OC)c(OC)c1", "effect": 7.723}
{"compound": "[H][C@@]12C[C@H](C(=O)Nc3cccnc3)[C@@]([H])(CN(Cc3ccc(C)cc3)C1)O2", "effect": 0.4433}